# Measured values reported in article PMC3138739.
# Chains of the proteins cited; added tags and fusions are not shown.
# UniProt A0QS45: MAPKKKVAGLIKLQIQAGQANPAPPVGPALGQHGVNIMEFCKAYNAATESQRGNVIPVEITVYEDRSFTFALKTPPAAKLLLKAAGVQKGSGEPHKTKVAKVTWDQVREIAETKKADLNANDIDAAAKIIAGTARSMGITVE
# UniProt P60281: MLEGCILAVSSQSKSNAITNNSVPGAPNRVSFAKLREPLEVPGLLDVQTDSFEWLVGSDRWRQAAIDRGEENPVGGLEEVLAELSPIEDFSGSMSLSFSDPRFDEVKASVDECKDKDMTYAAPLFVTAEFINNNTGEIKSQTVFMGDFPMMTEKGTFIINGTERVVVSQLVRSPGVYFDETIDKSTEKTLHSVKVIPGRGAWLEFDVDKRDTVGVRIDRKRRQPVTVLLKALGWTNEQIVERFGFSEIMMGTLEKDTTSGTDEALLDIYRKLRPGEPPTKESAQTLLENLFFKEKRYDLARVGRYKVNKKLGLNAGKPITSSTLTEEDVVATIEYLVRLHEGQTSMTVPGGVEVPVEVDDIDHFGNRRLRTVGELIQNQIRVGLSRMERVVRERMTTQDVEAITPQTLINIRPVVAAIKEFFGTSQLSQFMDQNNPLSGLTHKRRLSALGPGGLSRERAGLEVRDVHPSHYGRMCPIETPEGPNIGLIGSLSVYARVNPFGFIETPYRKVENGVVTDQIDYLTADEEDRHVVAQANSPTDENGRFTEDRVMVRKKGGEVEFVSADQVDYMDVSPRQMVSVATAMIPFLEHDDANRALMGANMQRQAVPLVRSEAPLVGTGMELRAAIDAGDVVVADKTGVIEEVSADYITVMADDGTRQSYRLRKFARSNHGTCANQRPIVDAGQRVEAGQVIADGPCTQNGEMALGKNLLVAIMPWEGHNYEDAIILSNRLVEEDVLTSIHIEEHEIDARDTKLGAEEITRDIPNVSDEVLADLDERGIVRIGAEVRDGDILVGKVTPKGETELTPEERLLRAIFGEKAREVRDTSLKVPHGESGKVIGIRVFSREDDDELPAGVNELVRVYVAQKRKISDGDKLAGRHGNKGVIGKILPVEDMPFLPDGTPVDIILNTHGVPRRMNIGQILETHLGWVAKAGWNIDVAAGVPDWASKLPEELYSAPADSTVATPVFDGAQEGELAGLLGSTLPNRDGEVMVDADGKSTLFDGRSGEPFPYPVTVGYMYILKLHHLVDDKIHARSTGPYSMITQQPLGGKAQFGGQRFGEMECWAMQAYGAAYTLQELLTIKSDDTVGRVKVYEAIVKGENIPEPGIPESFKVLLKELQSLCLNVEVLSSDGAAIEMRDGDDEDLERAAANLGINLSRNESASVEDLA
# These are yes or no findings as the source states them, for the method shown. A result given as binding can be weak or reduced; the word gives no strength. For part of these data: Binding seen in cells or lysates may run through a third protein.
# Key:
# [1] = molecular target: LexA DNA binding domain-Arr (yeast two-hybrid bait) (M. smegmatis) (UniProt A0QRS5); experiment: two-hybrid; LexA system in S. cerevisiae: bait LexA BD-Arr (pEG202), prey AD-L11 (pJSC401), mating of EGY48 and W303a, lacZ reporter pSH18-34, blue colour on X-gal
# [2] = molecular target: HA-Arr (HA-tagged wild-type mono-ADP-ribosyltransferase Arr) (M. smegmatis) (UniProt A0QRS5); experiment: co-IP; whole cell lysates of M. smegmatis strains expressing HA-Arr or HA-Arr point mutants (ΔrplK::FLAG-L11 strains by the legend), NP-40 buffer (10 mM sodium phosphate pH 8.0, 150 mM NaCl, 0.25% NP-40), monoclonal anti-HA agarose overnight at 4°C, eluted with HA peptide; blots with anti-RNAP β, anti-FLAG, anti-HA
substance,measurement,setting,value
activation domain-L11 (yeast two-hybrid prey) (from UniProt A0QS45 1-142),binding,[1],binds
RNAP β subunit (from UniProt P60281 1-1169),binding,[2],binds
FLAG-L11 (N-terminally FLAG-tagged ribosomal protein L11) (from UniProt A0QS45 1-142),binding,[2],binds
